In article PMC13321232:
Results are given in words; binding and its absence hold for the method and conditions named. In cells and extracts the contact can be indirect. Some entries that bind do so weakly or less than the wild type. Sequences can lack the tags named with a protein.

Biological target: T1, PXY-FLAG (insect cell construct) (Arabidopsis thaliana) (UniProt Q9FII5)
T1 sequence: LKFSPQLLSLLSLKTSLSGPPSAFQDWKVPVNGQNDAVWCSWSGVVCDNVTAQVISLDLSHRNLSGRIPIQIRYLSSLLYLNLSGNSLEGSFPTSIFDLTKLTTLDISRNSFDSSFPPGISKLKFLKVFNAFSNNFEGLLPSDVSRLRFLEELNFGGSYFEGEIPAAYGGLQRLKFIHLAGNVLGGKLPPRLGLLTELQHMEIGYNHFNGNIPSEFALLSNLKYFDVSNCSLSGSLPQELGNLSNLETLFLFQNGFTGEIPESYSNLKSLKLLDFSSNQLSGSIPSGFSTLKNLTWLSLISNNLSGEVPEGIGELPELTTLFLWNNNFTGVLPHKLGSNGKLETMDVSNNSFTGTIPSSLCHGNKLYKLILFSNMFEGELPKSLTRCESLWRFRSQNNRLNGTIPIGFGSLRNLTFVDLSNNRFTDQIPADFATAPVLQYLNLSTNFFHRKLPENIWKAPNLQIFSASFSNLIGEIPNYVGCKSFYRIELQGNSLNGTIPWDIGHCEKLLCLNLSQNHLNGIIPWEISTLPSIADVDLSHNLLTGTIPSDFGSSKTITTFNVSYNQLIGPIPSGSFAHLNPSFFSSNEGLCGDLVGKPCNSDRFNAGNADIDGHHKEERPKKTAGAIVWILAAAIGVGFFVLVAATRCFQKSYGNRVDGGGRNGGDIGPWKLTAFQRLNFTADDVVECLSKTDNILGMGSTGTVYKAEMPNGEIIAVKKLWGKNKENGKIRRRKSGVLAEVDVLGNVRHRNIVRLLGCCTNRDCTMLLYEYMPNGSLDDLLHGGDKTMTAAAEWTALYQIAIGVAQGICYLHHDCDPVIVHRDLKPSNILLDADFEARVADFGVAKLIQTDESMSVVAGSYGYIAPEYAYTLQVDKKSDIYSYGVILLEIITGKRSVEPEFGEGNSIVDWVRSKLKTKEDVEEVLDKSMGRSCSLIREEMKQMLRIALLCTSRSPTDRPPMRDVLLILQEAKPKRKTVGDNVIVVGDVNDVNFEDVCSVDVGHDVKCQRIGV
Assay: co-IP; PXY-flag and ER-twinstrep coexpressed in Sf21 cells; membranes solubilised in 2% DDM, diluted to 0.1% DDM; anti-FLAG M2 magnetic beads, 2 h at 4 °C; eluted with 3x FLAG peptide; Twinstrep-tag and Flag-tag immunoblots

- binding: binds
B1: ER-twinstrep (insect cell construct) (receptor, UniProt Q42371 25-976)
chain: EEGATLLEIKKSFKDVNNVLYDWTTSPSSDYCVWRGVSCENVTFNVVALNLSDLNLDGEISPAIGDLKSLLSIDLRGNRLSGQIPDEIGDCSSLQNLDLSFNELSGDIPFSISKLKQLEQLILKNNQLIGPIPSTLSQIPNLKILDLAQNKLSGEIPRLIYWNEVLQYLGLRGNNLVGNISPDLCQLTGLWYFDVRNNSLTGSIPETIGNCTAFQVLDLSYNQLTGEIPFDIGFLQVATLSLQGNQLSGKIPSVIGLMQALAVLDLSGNLLSGSIPPILGNLTFTEKLYLHSNKLTGSIPPELGNMSKLHYLELNDNHLTGHIPPELGKLTDLFDLNVANNDLEGPIPDHLSSCTNLNSLNVHGNKFSGTIPRAFQKLESMTYLNLSSNNIKGPIPVELSRIGNLDTLDLSNNKINGIIPSSLGDLEHLLKMNLSRNHITGVVPGDFGNLRSIMEIDLSNNDISGPIPEELNQLQNIILLRLENNNLTGNVGSLANCLSLTVLNVSHNNLVGDIPKNNNFSRFSPDSFIGNPGLCGSWLNSPCHDSRRTVRVSISRAAILGIAIGGLVILLMVLIAACRPHNPPPFLDGSLDKPVTYSTPKLVILHMNMALHVYEDIMRMTENLSEKYIIGHGASSTVYKCVLKNCKPVAIKRLYSHNPQSMKQFETELEMLSSIKHRNLVSLQAYSLSHLGSLLFYDYLENGSLWDLLHGPTKKKTLDWDTRLKIAYGAAQGLAYLHHDCSPRIIHRDVKSSNILLDKDLEARLTDFGIAKSLCVSKSHTSTYVMGTIGYIDPEYARTSRLTEKSDVYSYGIVLLELLTRRKAVDDESNLHHLIMSKTGNNEVMEMADPDITSTCKDLGVVKKVFQLALLCTKRQPNDRPTMHQVTRVLGSFMLSEQPPAATDTSATLAGSCYVDEYANLKTPHSVNCSSMSASDAQLFLRFGQVISQNSE
